Data published in PMC2976705.
These are yes or no findings as the source states them, for the method shown. In cells and extracts the contact can be indirect. Some results given as binding are weak or reduced against the parent protein; the word gives no strength.

The chains behind the UniProt entries cited, without tags or fusion partners.
UniProt Q00613: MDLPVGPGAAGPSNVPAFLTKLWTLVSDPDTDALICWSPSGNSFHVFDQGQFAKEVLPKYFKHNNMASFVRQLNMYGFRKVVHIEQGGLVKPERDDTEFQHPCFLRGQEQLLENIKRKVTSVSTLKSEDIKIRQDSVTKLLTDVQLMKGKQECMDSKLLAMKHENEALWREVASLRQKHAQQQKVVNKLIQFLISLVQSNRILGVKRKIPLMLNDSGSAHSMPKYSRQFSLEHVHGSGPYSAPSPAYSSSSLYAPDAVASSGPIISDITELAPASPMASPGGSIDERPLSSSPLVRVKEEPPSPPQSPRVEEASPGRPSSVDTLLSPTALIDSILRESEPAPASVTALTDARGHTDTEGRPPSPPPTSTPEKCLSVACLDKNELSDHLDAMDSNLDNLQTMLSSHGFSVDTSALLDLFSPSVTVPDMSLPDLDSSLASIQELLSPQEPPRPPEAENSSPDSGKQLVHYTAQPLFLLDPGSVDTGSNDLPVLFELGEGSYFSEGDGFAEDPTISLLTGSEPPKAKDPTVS
UniProt O14980: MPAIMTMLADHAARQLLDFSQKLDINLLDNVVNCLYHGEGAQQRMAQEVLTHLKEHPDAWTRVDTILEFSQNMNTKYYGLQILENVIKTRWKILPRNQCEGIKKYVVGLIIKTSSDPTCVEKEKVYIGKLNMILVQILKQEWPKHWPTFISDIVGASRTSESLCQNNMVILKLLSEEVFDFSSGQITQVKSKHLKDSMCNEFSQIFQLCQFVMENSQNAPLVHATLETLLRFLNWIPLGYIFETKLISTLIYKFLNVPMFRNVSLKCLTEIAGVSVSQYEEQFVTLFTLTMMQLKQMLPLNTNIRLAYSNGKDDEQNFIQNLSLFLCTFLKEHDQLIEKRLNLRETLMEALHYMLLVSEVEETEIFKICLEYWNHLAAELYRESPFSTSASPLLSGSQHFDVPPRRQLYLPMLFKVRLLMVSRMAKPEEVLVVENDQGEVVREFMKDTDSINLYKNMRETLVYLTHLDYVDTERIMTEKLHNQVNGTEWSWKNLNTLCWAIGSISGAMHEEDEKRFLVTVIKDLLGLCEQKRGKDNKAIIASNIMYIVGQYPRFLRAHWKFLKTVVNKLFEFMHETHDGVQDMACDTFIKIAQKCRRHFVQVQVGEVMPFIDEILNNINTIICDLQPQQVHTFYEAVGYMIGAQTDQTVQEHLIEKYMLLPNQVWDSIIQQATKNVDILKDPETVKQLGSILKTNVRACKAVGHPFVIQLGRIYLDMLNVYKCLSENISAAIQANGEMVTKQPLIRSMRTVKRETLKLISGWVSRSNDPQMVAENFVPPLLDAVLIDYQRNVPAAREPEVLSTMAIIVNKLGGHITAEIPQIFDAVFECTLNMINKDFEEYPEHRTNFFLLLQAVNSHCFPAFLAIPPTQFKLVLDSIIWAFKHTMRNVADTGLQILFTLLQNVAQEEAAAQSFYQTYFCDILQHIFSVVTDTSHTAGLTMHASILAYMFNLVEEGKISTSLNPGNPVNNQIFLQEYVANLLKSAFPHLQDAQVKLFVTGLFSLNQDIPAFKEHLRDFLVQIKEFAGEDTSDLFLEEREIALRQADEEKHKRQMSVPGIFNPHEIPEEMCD

Biological target: Heat Shock Factor 1 (human (endogenous in HeLa and MCF-7)) (UniProt Q00613)
Assay: co-IP; unpublished data; with or without heat shock; cells and antibodies not stated

binding: binds
Substance: CRM1/exportin1 (from UniProt O14980 1-1071)
